These results are taken from PubChem BioAssay AID338 (DTP/NCI, 2004).

The test system of the test is BDF1 mice, P388 leukemia (terephthalanilide-resistant), survival T/C. In words: NCI In Vivo Anticancer Drug Screen. Data for tumor model P388 Leukemia resistant to A Terephthalanilide; NSC 38280 (intraperitoneal) in B6D2F1 (BDF1) mice. Particulars: T/C endpoint: median survival time, schedule: Q01DX010 (ip), vehicle: saline, higher T/C = longer survival. How it is done:
The antitumor activity of compounds was measured in mice bearing transplantable tumors. Survival or tumor size were measured and the results are expressed as the measurement made in the treated group (T) divided by the measurement made in the vehicle treated control group (C). The tumor model used in this assay is P388 Leukemia resistant to A Terephthalanilide; NSC 38280 (intraperitoneal) in B6D2F1 (BDF1) mice

The list does not hold the whole screen: its compounds were picked by chemical class. Not every dose and run of a compound is shown. T/C gives the treated animals as a percentage of the vehicle group. Where survival is the endpoint, the PubChem record calls one and a half times the control and up active, and a quarter to a half above the control has no call in these data; cut-offs in other NCI protocols can differ. Some entries show no survivor count and are marked so; the dose need not have been tolerated. Schedules are NCI's codes, read here as Q, the interval in days (D) or hours (H), X, the number of doses. Some entries hold several experiments; the values are given in rising order.

Regarding `NC(Cc1cccc(N(CCCl)CCCl)c1)C(=O)O` (configuration not stated), the T/C by setting is: (dose: 0.63 mg/kg/injection) 113 % of control [survivor count not shown]; (dose: 1.25 mg/kg/injection) 104 % of control [survivor count not shown]; (dose: 2.5 mg/kg/injection) 90 % of control [survivor count not shown]; (dose: 313.0 micrograms/kg/injection) 95 % of control [survivor count not shown]; (dose: 625.0 micrograms/kg/injection) 100 % of control [survivor count not shown]; (dose: 1250.0 micrograms/kg/injection) 122 % of control [survivor count not shown].
Regarding `ClCCN(CCCl)Cc1nc2ccccc2[nH]1`, the T/C is, setting by setting: (dose: 1.25 mg/kg/injection) 100 % of control [survivor count not shown]; (dose: 2.5 mg/kg/injection) 100 % of control [survivor count not shown]; (dose: 5.0 mg/kg/injection) 109 % of control [survivor count not shown]; (dose: 10.0 mg/kg/injection) 90 % of control [survivor count not shown].
As for `CC(C(=O)O)N(CCCl)CCCl` (configuration not stated), the T/C is, setting by setting: (dose: 0.5 mg/kg/injection) 127 [survivor count not shown] and 130 % of control [survivor count not shown]; (dose: 1.0 mg/kg/injection) 166 [survivor count not shown] and 210 % of control [survivor count not shown]; (dose: 2.0 mg/kg/injection) 215 [survivor count not shown] and 233 % of control [survivor count not shown]; (dose: 4.0 mg/kg/injection) 105 % of control [survivor count not shown].
Turning to `NC1CCCCC1.NP(=O)(O)N(CCCl)CCCl`, the T/C (dose: 31.3 mg/kg/injection) was 188 [survivor count not shown] and 263 % of control [survivor count not shown]; the T/C (dose: 62.5 mg/kg/injection) was 136 [survivor count not shown] and 158 % of control [survivor count not shown].
As to `ClCCNCCCl`, the T/C is 100 [survivor count not shown] and 122 % of control [survivor count not shown] (dose: 18.8 mg/kg/injection); 126 [survivor count not shown] and 133 % of control [survivor count not shown] (dose: 37.5 mg/kg/injection); 94 % of control [survivor count not shown] (dose: 75.0 mg/kg/injection).
Regarding `O=C(O)CN(CCCl)CCCl`, the T/C (dose: 0.63 mg/kg/injection) was 133 [survivor count not shown] and 140 % of control [survivor count not shown]; the T/C (dose: 1.25 mg/kg/injection) was 150 [survivor count not shown] and 166 % of control [survivor count not shown]; the T/C (dose: 2.5 mg/kg/injection) was 165 [survivor count not shown] and 222 % of control [survivor count not shown]; the T/C (dose: 5.0 mg/kg/injection) is 88 % of control [survivor count not shown].
On to `NC(Cc1ccccc1N(CCCl)CCCl)C(=O)O` (configuration not stated), for which the T/C by setting is: (dose: 125.0 micrograms/kg/injection) 127 % of control [survivor count not shown]; (dose: 250.0 micrograms/kg/injection) 100 % of control [survivor count not shown]; (dose: 500.0 micrograms/kg/injection) 136 % of control [survivor count not shown]; (dose: 1000.0 micrograms/kg/injection) 122 % of control [survivor count not shown].
